# Source: the supplement of paper PMC10032668
# Sequences of proteins named here, by UniProt entry; tags and fusion partners are left off.
# CAMP, P49913, UniProt P49913, whole entry: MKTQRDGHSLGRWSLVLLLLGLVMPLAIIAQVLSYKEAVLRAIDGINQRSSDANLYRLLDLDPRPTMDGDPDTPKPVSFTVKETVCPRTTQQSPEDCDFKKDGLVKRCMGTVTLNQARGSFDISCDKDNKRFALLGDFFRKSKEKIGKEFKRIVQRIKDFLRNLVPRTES
# CHTF18, Q8WVB6, UniProt Q8WVB6, whole entry: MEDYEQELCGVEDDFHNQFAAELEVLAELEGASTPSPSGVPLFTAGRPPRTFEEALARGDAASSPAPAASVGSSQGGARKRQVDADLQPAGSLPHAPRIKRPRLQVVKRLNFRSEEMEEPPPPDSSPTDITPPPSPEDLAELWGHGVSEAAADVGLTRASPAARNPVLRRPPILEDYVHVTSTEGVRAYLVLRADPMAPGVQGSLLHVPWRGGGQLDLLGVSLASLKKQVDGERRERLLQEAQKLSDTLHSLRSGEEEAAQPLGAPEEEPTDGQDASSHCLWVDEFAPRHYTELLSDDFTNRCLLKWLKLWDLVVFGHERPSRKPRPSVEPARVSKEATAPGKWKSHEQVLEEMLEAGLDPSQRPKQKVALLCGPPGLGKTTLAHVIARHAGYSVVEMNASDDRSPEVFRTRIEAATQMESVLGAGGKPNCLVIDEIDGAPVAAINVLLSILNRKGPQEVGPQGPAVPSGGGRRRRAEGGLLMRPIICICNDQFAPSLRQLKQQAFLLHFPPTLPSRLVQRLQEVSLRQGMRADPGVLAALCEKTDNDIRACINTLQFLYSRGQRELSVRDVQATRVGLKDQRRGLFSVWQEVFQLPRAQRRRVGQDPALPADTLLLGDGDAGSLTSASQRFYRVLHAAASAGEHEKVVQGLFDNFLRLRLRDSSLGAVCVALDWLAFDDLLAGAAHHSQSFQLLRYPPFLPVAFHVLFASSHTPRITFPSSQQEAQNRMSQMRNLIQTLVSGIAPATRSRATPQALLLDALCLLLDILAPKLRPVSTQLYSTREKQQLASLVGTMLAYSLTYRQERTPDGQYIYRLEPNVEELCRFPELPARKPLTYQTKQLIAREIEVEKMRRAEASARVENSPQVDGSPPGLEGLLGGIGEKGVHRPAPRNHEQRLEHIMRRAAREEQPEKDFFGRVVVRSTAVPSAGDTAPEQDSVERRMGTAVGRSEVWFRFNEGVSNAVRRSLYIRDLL
# EIF3A, Q14152, UniProt Q14152, whole entry: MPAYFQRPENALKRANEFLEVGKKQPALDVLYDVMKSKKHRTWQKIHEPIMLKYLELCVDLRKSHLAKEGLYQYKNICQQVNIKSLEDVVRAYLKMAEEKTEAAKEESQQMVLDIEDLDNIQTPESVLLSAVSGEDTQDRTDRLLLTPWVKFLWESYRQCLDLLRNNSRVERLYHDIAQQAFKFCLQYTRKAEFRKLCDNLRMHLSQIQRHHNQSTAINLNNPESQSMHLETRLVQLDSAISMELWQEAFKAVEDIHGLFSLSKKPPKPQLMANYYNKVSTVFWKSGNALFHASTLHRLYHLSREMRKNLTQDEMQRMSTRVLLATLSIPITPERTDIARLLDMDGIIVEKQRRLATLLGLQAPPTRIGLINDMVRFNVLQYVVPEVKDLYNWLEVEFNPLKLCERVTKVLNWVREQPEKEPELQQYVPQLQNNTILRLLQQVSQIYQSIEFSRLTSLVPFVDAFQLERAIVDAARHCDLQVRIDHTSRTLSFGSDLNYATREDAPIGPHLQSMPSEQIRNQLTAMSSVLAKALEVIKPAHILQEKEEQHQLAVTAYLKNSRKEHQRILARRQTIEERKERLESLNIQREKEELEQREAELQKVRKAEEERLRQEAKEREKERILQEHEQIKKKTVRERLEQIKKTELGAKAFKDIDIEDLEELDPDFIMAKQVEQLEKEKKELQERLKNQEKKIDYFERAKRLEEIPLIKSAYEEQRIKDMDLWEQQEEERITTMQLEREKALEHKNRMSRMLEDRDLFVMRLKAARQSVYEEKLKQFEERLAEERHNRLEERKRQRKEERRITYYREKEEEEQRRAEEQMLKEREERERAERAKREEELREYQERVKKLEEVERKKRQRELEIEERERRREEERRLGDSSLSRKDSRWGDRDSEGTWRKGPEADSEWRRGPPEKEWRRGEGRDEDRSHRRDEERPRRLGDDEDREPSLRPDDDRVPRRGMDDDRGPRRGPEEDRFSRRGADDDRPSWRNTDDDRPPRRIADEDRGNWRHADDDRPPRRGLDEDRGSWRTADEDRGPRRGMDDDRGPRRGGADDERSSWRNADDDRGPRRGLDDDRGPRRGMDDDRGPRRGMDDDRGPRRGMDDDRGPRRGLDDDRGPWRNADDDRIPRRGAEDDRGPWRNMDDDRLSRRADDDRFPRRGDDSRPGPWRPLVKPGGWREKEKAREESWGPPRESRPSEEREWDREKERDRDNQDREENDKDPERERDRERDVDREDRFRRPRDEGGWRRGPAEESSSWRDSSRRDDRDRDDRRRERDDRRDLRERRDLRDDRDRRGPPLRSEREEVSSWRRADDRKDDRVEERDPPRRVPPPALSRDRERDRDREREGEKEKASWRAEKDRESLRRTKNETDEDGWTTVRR
# FXR1, P51114, UniProt P51114, whole entry: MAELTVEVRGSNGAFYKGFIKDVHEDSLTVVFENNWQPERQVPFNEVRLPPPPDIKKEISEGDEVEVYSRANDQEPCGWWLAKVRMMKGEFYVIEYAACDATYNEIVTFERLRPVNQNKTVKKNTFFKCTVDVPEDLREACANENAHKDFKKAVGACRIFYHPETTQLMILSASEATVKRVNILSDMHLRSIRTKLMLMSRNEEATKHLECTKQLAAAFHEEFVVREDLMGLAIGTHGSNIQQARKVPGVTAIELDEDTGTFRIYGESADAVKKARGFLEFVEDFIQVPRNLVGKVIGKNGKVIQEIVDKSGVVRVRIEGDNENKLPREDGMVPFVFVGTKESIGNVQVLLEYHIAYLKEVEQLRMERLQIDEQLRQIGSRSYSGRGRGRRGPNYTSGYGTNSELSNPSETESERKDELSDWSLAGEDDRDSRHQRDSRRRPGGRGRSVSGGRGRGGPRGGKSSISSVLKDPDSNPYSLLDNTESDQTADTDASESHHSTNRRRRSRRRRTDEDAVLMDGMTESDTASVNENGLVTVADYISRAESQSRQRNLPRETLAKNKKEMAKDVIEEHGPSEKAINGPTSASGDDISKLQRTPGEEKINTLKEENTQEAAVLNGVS
# LARP4B, Q92615, UniProt Q92615, whole entry: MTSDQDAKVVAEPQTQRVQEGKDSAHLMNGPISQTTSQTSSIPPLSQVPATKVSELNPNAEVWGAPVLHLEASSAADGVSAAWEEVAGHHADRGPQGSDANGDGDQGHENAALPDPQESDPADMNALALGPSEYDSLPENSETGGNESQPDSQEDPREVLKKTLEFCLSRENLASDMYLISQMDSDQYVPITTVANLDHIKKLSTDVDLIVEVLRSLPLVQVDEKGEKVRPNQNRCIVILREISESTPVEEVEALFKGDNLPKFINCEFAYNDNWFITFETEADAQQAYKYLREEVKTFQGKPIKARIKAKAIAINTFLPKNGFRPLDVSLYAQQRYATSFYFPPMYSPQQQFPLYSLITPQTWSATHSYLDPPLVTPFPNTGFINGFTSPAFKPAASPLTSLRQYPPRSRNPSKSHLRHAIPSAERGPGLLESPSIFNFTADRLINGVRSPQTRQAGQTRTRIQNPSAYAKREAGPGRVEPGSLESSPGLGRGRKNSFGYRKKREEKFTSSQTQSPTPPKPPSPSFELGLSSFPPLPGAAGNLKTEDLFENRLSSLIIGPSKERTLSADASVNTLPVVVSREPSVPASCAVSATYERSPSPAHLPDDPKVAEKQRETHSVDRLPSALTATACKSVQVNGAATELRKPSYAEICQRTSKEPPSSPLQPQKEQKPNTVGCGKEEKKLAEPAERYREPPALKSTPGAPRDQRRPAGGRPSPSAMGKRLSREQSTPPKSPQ
# TPM4, P67936, UniProt P67936, whole entry: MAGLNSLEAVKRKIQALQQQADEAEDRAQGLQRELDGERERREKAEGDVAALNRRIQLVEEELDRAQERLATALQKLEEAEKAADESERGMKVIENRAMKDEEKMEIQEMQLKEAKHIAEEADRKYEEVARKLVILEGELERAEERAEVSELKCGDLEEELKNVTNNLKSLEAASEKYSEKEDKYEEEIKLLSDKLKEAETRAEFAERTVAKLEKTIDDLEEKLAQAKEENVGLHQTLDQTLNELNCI
# The list shows a part of the results. The list holds hits alone, and they repeat only in part.
# Experiments:
# Experiment in all cases: PRISMA enrichment of interactor (LFQ) in peptide spot vs all other peptide spots (log2 fold change); higher = stronger / more specific binding of the interactor to the peptide
# [1] = biological target: CALU, O43852
# Method: (§1)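 PRISMA: 15-aa overlapping tiles (offset 8 aa) of 60 microproteins, plus SOS1/GLUT1 control peptides, were spot-synthesized on cellulose membranes in triplicate. Membranes were incubated with benzonase-treated HEK293T lysate, and bound proteins were identified by LC-MS/MS with LFQ. Enrichment is the log2 fold change of each protein in one spot versus all other spots. Only interactors passing the significance cutoff are listed.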
# [2] = biological target: HSPBP1, Q9NZL4
# Method: as §1
# [3] = biological target: MRPL27, Q9P0M9
# Method: as §1
# [4] = biological target: ORC2, Q13416
# Method: as §1
# [5] = biological target: SFSWAP, Q12872
# Method: as §1
# [6] = biological target: SLC25A4, P12235
# Method: as §1
# [7] = biological target: TRA2A, Q13595
# Method: as §1
# [8] = biological target: ZNF622, Q969S3
# Method: as §1
# [9] = biological target: CAMP, P49913
# Method: as §1
# [10] = biological target: CDC73, Q6P1J9
# Method: as §1
# [11] = biological target: CHTF18, Q8WVB6
# Method: as §1
# [12] = biological target: CPS1, P31327
# Method: as §1
# [13] = biological target: DHX15, O43143
# Method: as §1
# [14] = biological target: FANCD2, Q9BXW9
# Method: as §1
# [15] = substrate: PNN, Q9H307
# Method: as §1
# [16] = biological target: RBM7, Q9Y580
# Method: as §1
# [17] = biological target: TRMT5, Q32P41
# Method: as §1
# [18] = biological target: CCT3, P49368
# Method: as §1
# [19] = biological target: CEBPZ, Q03701
# Method: as §1
# [20] = biological target: CHCHD3, Q9NX63
# Method: as §1
# [21] = biological target: CHCHD6, Q9BRQ6
# Method: as §1
# [22] = biological target: EARS2, Q5JPH6
# Method: as §1
# [23] = biological target: EIF3A, Q14152
# Method: as §1
# [24] = biological target: EXOSC10, Q01780
# Method: as §1
# [25] = biological target: FXR1, P51114
# Method: as §1
# [26] = biological target: GPD1L, Q8N335
# Method: as §1
# [27] = biological target: LARP4B, Q92615
# Method: as §1
# [28] = biological target: LMNA, P02545
# Method: as §1
# [29] = biological target: LYPLAL1, Q5VWZ2
# Method: as §1
# [30] = biological target: MPST, P25325
# Method: as §1
# [31] = biological target: MRPS6, P82932
# Method: as §1
# [32] = biological target: ORC4, O43929
# Method: as §1
# [33] = biological target: PAF1, Q8N7H5
# Method: as §1
# [34] = biological target: PAICS, P22234
# Method: as §1
# [35] = biological target: RAB11A, P62491
# Method: as §1
# [36] = biological target: SLC37A4, O43826
# Method: as §1
# [37] = biological target: STAT1, P42224
# Method: as §1
# [38] = biological target: TAGLN2, P37802
# Method: as §1
# [39] = biological target: TKT, P29401
# Method: as §1
# [40] = biological target: TMED1, Q13445
# Method: as §1
# [41] = biological target: TPM4, P67936
# Method: as §1
# [42] = biological target: UMPS, P11172
# Method: as §1
# [43] = biological target: UTP20, O75691
# Method: as §1
binder,measurement,setting,value
DFYFASIRREFRKNQ [MIEF-MP],PRISMA enrichment of interactor (log2),[1],4.84
same,PRISMA enrichment of interactor (log2),[2],3.85
same,PRISMA enrichment of interactor (log2),[3],7.02
same,PRISMA enrichment of interactor (log2),[4],5.46
same,PRISMA enrichment of interactor (log2),[5],5.67
same,PRISMA enrichment of interactor (log2),[6],6.28
same,PRISMA enrichment of interactor (log2),[7],8.05
same,PRISMA enrichment of interactor (log2),[8],5.1
STDFPRRTTRGEACG [THAP7],PRISMA enrichment of interactor (log2),[9],4.64
same,PRISMA enrichment of interactor (log2),[10],5.55
same,PRISMA enrichment of interactor (log2),[11],4.61
same,PRISMA enrichment of interactor (log2),[12],4.98
same,PRISMA enrichment of interactor (log2),[13],7.8
same,PRISMA enrichment of interactor (log2),[14],4.29
same,PRISMA enrichment of interactor (log2),[15],5.83
same,PRISMA enrichment of interactor (log2),[16],7.31
same,PRISMA enrichment of interactor (log2),[17],4.91
LLRDLVTEARQRFHL [RP1-206D15.6],PRISMA enrichment of interactor (log2),[9],6.6
same,PRISMA enrichment of interactor (log2),[18],7.12
same,PRISMA enrichment of interactor (log2),[19],6.57
same,PRISMA enrichment of interactor (log2),[20],4.5
same,PRISMA enrichment of interactor (log2),[21],5.76
same,PRISMA enrichment of interactor (log2),[22],7.27
same,PRISMA enrichment of interactor (log2),[23],7.21
same,PRISMA enrichment of interactor (log2),[24],4.47
same,PRISMA enrichment of interactor (log2),[25],6.72
same,PRISMA enrichment of interactor (log2),[26],4.57
same,PRISMA enrichment of interactor (log2),[27],5.43
same,PRISMA enrichment of interactor (log2),[28],4.14
same,PRISMA enrichment of interactor (log2),[29],5
same,PRISMA enrichment of interactor (log2),[30],4.27
same,PRISMA enrichment of interactor (log2),[31],6.13
same,PRISMA enrichment of interactor (log2),[32],5.74
same,PRISMA enrichment of interactor (log2),[33],6.07
same,PRISMA enrichment of interactor (log2),[34],8.22
same,PRISMA enrichment of interactor (log2),[35],4.84
same,PRISMA enrichment of interactor (log2),[36],4.27
same,PRISMA enrichment of interactor (log2),[37],4.75
same,PRISMA enrichment of interactor (log2),[38],6.91
same,PRISMA enrichment of interactor (log2),[39],6.66
same,PRISMA enrichment of interactor (log2),[40],4.46
same,PRISMA enrichment of interactor (log2),[41],7.72
same,PRISMA enrichment of interactor (log2),[42],6.94
same,PRISMA enrichment of interactor (log2),[43],4.18
